No constants are given. Whether binding was seen depends on the method and setting. Binding seen in cells or lysates may run through a third protein. Some results given as binding are weak or reduced against the parent protein; the word gives no strength.

Sequences of proteins named here, by UniProt entry; tags and fusion partners are left off. A change or cut given only in a name is not applied to a line headed by its entry.
UniProt P17931: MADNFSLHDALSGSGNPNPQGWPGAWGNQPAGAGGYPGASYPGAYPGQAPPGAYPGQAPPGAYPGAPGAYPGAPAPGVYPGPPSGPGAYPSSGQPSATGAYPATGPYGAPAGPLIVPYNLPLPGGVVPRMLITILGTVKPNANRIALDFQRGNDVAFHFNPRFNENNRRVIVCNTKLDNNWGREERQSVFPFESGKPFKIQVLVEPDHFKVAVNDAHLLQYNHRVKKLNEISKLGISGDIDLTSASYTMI
UniProt Q07812: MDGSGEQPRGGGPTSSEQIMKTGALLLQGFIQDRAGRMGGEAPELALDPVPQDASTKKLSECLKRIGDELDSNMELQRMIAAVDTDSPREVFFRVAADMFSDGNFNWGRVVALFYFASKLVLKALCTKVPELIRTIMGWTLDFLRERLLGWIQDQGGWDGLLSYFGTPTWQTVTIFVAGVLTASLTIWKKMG

For three substances, binding results are on record in publication PMC4259453.

The target in assay [1] is mutant Gal-3 G182A (V5-tagged) (human) (UniProt P17931). Kind of assay: co-IP; 293 cells transiently transfected for 48 h with pcDNA6/V5 plasmids; lysates immunoprecipitated with anti-V5 antibody, immunoblot.
Assay [2] deals with Galectin-3 (human (endogenous in TPC1)) (UniProt P17931). Kind of assay: co-IP; TPC1 cells treated with 0.5 or 1 uM DXR for 24 h; lysates in buffer with 1% CHAPS; immunoprecipitated with polyclonal anti-Bax or polyclonal anti-Gal-3 antibody and protein G Sepharose at 4°C, immunoblot; with 1% GCS-100/MCP pretreatment (3 h) plus DXR the interaction was suppressed significantly.
Assay [3] concerns the target Bax (human (endogenous in TPC1)) (UniProt Q07812). The description is as above.

For “Bax (in 293 cells) (from UniProt Q07812 1-192)”, the binding entry in assay [1] is recorded as “binds weakly”.
As to Bax (from UniProt Q07812 1-192), in assay [2], the binding entry is reported as “binds”.
In the case of Galectin-3 (from UniProt P17931 1-250), in assay [3], the binding entry is “binds”.
